# From the supplement of paper PMC8728848
# Some of the results follow.
# B1: Clone646PsrP (Streptococcus pneumoniae) (protein)
# chain: MDHHHHHHHHASENLYFQGAPAINASLNIAKSETKVYTGEGVDSVYRVPIYYKLKVTNDGSKLTFTYTVTYVNPKTNDLGNISSMRPGYSIYNSGTSTQTMLTLGSDLGKPSGVKNYITDKNGRQVLSYNTSTMTTQGSGYTWGNGAQMNGFFAKKGYGLTSSWTVPITGTDTSFTFTPYAARTDRIGINYFNGGGKVVESSTTSQSLSQSKSLSVSAS
# Experiments:
# Assay in all cases: glycan array binding signal (z-score within array); higher = stronger binding
# Conditions in all cases: glycan notation: IUPAC condensed, linker removed
# Fuc(a1-2)Gal = target: Fuc(a1-2)Gal
# Summary of the method: (§1)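 Glycan array binding is given as a within-array Z-score, which can be read as non-binding when negative. The arrays, 3228 of them, came from the Consortium for Functional Glycomics database and were retained only where the protein sequence was available. Z-scores were averaged across arrays of the same protein sequence at different concentrations or buffers and across linkers.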
# Fuc(a1-2)Gal(b1-3)GalNAc = target: Fuc(a1-2)Gal(b1-3)GalNAc
# Summary of the method: as §1
# [1] = target: Fuc(a1-2)Gal(b1-3)GalNAc(a1-3)[Fuc(a1-2)]Gal(b1-4)Glc
# Summary of the method: as §1
# [2] = target: Fuc(a1-2)Gal(b1-3)GalNAc(a1-3)[Fuc(a1-2)]Gal(b1-4)GlcNAc
# Summary of the method: as §1
# [3] = target: Fuc(a1-2)Gal(b1-3)GalNAc(b1-3)Gal
# Summary of the method: as §1
# [4] = target: Fuc(a1-2)Gal(b1-3)GalNAc(b1-3)Gal(a1-4)Gal(b1-4)Glc
# Summary of the method: as §1
# [5] = target: Fuc(a1-2)Gal(b1-3)GalNAc(b1-4)[Neu5Ac(a2-3)]Gal(b1-4)Glc
# Summary of the method: as §1
# Fuc(a1-2)Gal(b1-3)GlcNAc = target: Fuc(a1-2)Gal(b1-3)GlcNAc
# Summary of the method: as §1
# [6] = target: Fuc(a1-2)Gal(b1-3)GlcNAc(b1-2)Man(a1-3)[Fuc(a1-2)Gal(b1-3)GlcNAc(b1-2)Man(a1-6)]Man(b1-4)GlcNAc(b1-4)GlcNAc
# Summary of the method: as §1
# [7] = target: Fuc(a1-2)Gal(b1-3)GlcNAc(b1-2)Man(a1-3)[Fuc(a1-2)Gal(b1-3)GlcNAc(b1-2)Man(a1-6)]Man(b1-4)GlcNAc(b1-4)[Fuc(a1-6)]GlcNAc
# Summary of the method: as §1
# [8] = target: Fuc(a1-2)Gal(b1-3)GlcNAc(b1-3)Gal(b1-4)Glc
# Summary of the method: as §1
# [9] = target: Fuc(a1-2)Gal(b1-3)GlcNAc(b1-3)GalNAc
# Summary of the method: as §1
# [10] = target: Fuc(a1-2)Gal(b1-3)GlcNAc(b1-3)[Fuc(a1-2)Gal(b1-3)GlcNAc(b1-6)]GalNAc
# Summary of the method: as §1
# [11] = target: Fuc(a1-2)Gal(b1-3)GlcNAc(b1-3)[Gal(b1-4)GlcNAc(b1-6)]Gal(b1-4)Glc
# Summary of the method: as §1
# [12] = target: Fuc(a1-2)Gal(b1-3)GlcNAc(b1-3)[Neu5Ac(a2-6)Gal(b1-4)GlcNAc(b1-6)]Gal(b1-4)Glc
# Summary of the method: as §1
# [13] = target: Fuc(a1-2)Gal(b1-3)GlcNAc6S
# Summary of the method: as §1
# [14] = target: Fuc(a1-2)Gal(b1-3)[Fuc(a1-4)]GlcNAc
# Summary of the method: as §1
# [15] = target: Fuc(a1-2)Gal(b1-3)[Fuc(a1-4)]GlcNAc(b1-2)Man(a1-3)[Fuc(a1-2)Gal(b1-3)[Fuc(a1-4)]GlcNAc(b1-2)Man(a1-3)]Man(b1-4)GlcNAc(b1-4)GlcNAc
# Summary of the method: as §1
# [16] = target: Fuc(a1-2)Gal(b1-3)[Fuc(a1-4)]GlcNAc(b1-2)Man(a1-3)[Fuc(a1-2)Gal(b1-3)[Fuc(a1-4)]GlcNAc(b1-2)Man(a1-6)]Man(b1-4)GlcNAc(b1-4)[Fuc(a1-6)]GlcNAc(b1-4)[Fuc(a1-6)]GlcNAc
# Summary of the method: as §1
# [17] = target: Fuc(a1-2)Gal(b1-3)[Fuc(a1-4)]GlcNAc(b1-3)[Fuc(a1-3)[Gal(b1-4)]GlcNAc(b1-6)]Gal(b1-4)Glc
# Summary of the method: as §1
# [18] = target: Fuc(a1-2)Gal(b1-3)[Fuc(a1-4)]GlcNAc(b1-3)[Gal(b1-4)GlcNAc(b1-6)]Gal(b1-4)Glc
# Summary of the method: as §1
# Fuc(a1-2)Gal(b1-4)Glc = target: Fuc(a1-2)Gal(b1-4)Glc
# Summary of the method: as §1
# Fuc(a1-2)Gal(b1-4)Glc6S = target: Fuc(a1-2)Gal(b1-4)Glc6S
# Summary of the method: as §1
# Fuc(a1-2)Gal(b1-4)GlcNAc = target: Fuc(a1-2)Gal(b1-4)GlcNAc
# Summary of the method: as §1
# [19] = target: Fuc(a1-2)Gal(b1-4)GlcNAc(b1-2)Man
# Summary of the method: as §1
# [20] = target: Fuc(a1-2)Gal(b1-4)GlcNAc(b1-2)Man(a1-3)[Fuc(a1-2)Gal(b1-4)GlcNAc(b1-2)Man(a1-6)]Man(b1-4)GlcNAc(b1-4)GlcNAc
# Summary of the method: as §1
# [21] = target: Fuc(a1-2)Gal(b1-4)GlcNAc(b1-2)Man(a1-3)[Fuc(a1-2)Gal(b1-4)GlcNAc(b1-2)Man(a1-6)]Man(b1-4)GlcNAc(b1-4)[Fuc(a1-6)]GlcNAc
# Summary of the method: as §1
# [22] = target: Fuc(a1-2)Gal(b1-4)GlcNAc(b1-2)[Fuc(a1-2)Gal(b1-4)GlcNAc(b1-4)]Man(a1-3)[Fuc(a1-2)Gal(b1-4)GlcNAc(b1-2)Man(a1-6)]Man(b1-4)GlcNAc(b1-4)GlcNAc
# Summary of the method: as §1
# [23] = target: Fuc(a1-2)Gal(b1-4)GlcNAc(b1-3)Gal(b1-4)GlcNAc
# Summary of the method: as §1
# [24] = target: Fuc(a1-2)Gal(b1-4)GlcNAc(b1-3)Gal(b1-4)GlcNAc(b1-2)Man(a1-3)[Fuc(a1-2)Gal(b1-4)GlcNAc(b1-3)Gal(b1-4)GlcNAc(b1-2)Man(a1-6)]Man(b1-4)GlcNAc(b1-4)GlcNAc
# Summary of the method: as §1
binder,measurement,setting,value
B1,glycan array binding signal (z-score),Fuc(a1-2)Gal,0.089
same,glycan array binding signal (z-score),Fuc(a1-2)Gal(b1-3)GalNAc,-0.736
same,glycan array binding signal (z-score),[1],-0.841
same,glycan array binding signal (z-score),[2],0.015
same,glycan array binding signal (z-score),[3],0.047
same,glycan array binding signal (z-score),[4],0.319
same,glycan array binding signal (z-score),[5],-0.297
same,glycan array binding signal (z-score),Fuc(a1-2)Gal(b1-3)GlcNAc,-0.088
same,glycan array binding signal (z-score),[6],1.12
same,glycan array binding signal (z-score),[7],0.624
same,glycan array binding signal (z-score),[8],-0.81
same,glycan array binding signal (z-score),[9],-0.729
same,glycan array binding signal (z-score),[10],1.28
same,glycan array binding signal (z-score),[11],-0.478
same,glycan array binding signal (z-score),[12],-0.574
same,glycan array binding signal (z-score),[13],0.76
same,glycan array binding signal (z-score),[14],-0.684
same,glycan array binding signal (z-score),[15],1.88
same,glycan array binding signal (z-score),[16],-0.681
same,glycan array binding signal (z-score),[17],-1.03
same,glycan array binding signal (z-score),[18],-0.829
same,glycan array binding signal (z-score),Fuc(a1-2)Gal(b1-4)Glc,-0.286
same,glycan array binding signal (z-score),Fuc(a1-2)Gal(b1-4)Glc6S,1.62
same,glycan array binding signal (z-score),Fuc(a1-2)Gal(b1-4)GlcNAc,0.068
same,glycan array binding signal (z-score),[19],1.52
same,glycan array binding signal (z-score),[20],-0.397
same,glycan array binding signal (z-score),[21],0.523
same,glycan array binding signal (z-score),[22],-0.303
same,glycan array binding signal (z-score),[23],-0.74
same,glycan array binding signal (z-score),[24],-0.333

# 2 entries from above, with bars between the fields:
binder | measurement | setting | value
B1 | glycan array binding signal (z-score) | [4] | 0.319
same | glycan array binding signal (z-score) | [5] | -0.297
